PMC8899586
These are yes or no findings as the source states them, for the method shown. In cells and extracts the contact can be indirect. Some results given as binding are weak or reduced against the parent protein; the word gives no strength.

By UniProt entry, the sequences of proteins in these tests, tags left out.
UniProt Q9UQL6: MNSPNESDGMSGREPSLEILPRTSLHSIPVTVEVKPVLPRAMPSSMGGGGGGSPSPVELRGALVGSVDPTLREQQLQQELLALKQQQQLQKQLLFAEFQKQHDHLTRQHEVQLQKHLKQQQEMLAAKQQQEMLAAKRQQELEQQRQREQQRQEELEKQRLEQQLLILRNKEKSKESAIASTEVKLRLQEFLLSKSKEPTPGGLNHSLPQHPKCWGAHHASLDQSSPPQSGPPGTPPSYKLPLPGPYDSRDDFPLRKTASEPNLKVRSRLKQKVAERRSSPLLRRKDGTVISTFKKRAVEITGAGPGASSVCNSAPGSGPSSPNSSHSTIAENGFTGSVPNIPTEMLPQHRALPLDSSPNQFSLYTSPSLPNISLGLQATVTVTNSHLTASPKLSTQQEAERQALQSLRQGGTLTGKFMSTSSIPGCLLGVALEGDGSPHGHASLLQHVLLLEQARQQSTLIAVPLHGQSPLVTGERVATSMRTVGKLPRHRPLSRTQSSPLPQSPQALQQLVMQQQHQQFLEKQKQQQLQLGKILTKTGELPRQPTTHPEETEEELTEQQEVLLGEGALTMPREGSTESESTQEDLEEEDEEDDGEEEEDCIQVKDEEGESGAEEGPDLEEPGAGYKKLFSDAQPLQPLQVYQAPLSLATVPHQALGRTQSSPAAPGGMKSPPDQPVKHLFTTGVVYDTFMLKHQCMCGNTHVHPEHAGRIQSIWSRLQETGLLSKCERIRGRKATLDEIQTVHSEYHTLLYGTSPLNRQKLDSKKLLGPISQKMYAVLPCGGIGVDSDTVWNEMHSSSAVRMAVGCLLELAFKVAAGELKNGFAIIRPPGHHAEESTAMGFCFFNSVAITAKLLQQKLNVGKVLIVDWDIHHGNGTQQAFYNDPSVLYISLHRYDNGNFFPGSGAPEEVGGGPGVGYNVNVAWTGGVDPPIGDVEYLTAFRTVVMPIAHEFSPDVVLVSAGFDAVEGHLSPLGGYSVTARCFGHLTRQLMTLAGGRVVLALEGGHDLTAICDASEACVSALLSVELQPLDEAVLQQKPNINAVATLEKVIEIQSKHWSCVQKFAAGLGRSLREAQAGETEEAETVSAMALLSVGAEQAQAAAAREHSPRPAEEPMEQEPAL

Key:
Flag-HDAC5 = Flag-HDAC5 (UniProt Q9UQL6); test: co-IP; PANC-1 cells transfected with HDAC5 plasmid, harvested 48 h later; lysis buffer 20 mM Tris pH 7.5, 150 mM NaCl, 1% Triton X-100; protein A/G agarose, 4 °C overnight; western blot (Figure 3B); also with DMSO or TNF-α for 24 h (Figure 4A)
[1] = target: HDAC5 (human (endogenous in PANC-1)) (UniProt Q9UQL6); test: co-IP; endogenous proteins in PANC-1 lysate, reciprocal co-IP (Figure 3C); also WCL with or without λ-phosphatase (Figure 4B) and cells treated with staurosporine 1 µM or DMSO for 24 h (Figure 4I)
WT Flag-p65 = WT Flag-p65 (UniProt Q04206); test: co-IP; PANC-1 cells transfected with p65 plasmids (WT, S311A) for 48 h; western blot (Figure 4F)
Flag-p65 (S311A) = Flag-p65 (S311A) (UniProt Q04206); test: as above
GST-p65-C-terminus = GST-p65-C-terminus (UniProt Q04206); test: pull-down; GST-p65-C and mutated GST-p65-C recombinant proteins on Glutathione-Sepharose beads, incubated with PANC-1 whole cell lysate, 4 °C 8 h; western blot of HDAC5 (Figure 4E); only the target purified

Row | Substance | binding (Flag-HDAC5) | binding [1] | binding (WT Flag-p65) | binding (Flag-p65 (S311A)) | binding (GST-p65-C-terminus)
1 | NF-κB p65 (from UniProt Q04206 1-551) | binds | binds | – | – | –
2 | HDAC5 (from UniProt Q9UQL6 1-1122) (enzyme) | – | – | binds | binds | binds
